According to PubChem BioAssay AID1347423 (Functional Genomics Laboratory (NCATS/FGL), 2020):
In all, about 52,000 sequences went through this assay and about 210 (0.4%) were called active.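 Rule for the calls: active = gene whose silencing raises cell survival under the drug, median off-target-corrected z-score across its silencing RNAs 2 or more; inactive = the rest.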 Some of the results follow.

Experiment: Resistance to Poly (ADP-Ribose) Polymerase inhibitor: Gene Identification via Genome-wide siRNA Screen
Settings: mouse BRCA2 R2336H ES cells, olaparib, CellTiter-Glo viability; active compounds read high
Method in brief: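 Genome-wide siRNA screen (3 siRNAs/gene, 20 nM) in mouse ES cells carrying hypomorphic BRCA2 R2336H; olaparib 500 nM added 48 h post-transfection, CellTiter-Glo viability 72 h later. Normalized to plate-median negative control; MAD z-scores, gene median, seed-adjusted.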

Row | Sequence | z-score
1 | GGAGACUUCAGCACCUUUGTT against Slp | inactive: 0.531
2 | GCUAAGAGCUGAAAGUGAATT against 4933426L22Rik | inactive: 0.2
3 | GCGAUGCUACUGAAAGCGATT against Catsper2 | inactive: 0.928
4 | CCAUCUCUCCAAAGGGCUGTT against Olfr32 | inactive: -2.4
5 | GCACACAUCAAGAAACUUGTT against Mxi1 | inactive: -0.432
6 | GGUGUCAAAAGUUUUCUAGTT against Tcf23 | inactive: 0.311
7 | GGCUUUCAUCGUUUUUGCCTT against Rbm12 | inactive: -0.818
8 | GGUGGAUUCUAUUAAAUGCTT against A830093M07 | inactive: 0.559
9 | GGUUUGUGGGCUUUCACACTT against Pdxp | inactive: 0.869
10 | CCAUUUGACAAGACUGCCATT against B430201G11Rik | inactive: -0.566
11 | ACGCAAGUCACCAUCUUCUTT against Tas2r118 | inactive: -0.475
12 | CGGAAGUGUCAAAACCAGATT against Zfp509 | inactive: 0.0415
13 | GGAUGUAAAAUGCAGUUUATT against Tmsb4x | inactive: 2.07
14 | GCAGCUUCGAAACCUACCATT against 1110003P22Rik | inactive: -0.459
15 | GGCUUUGCUAGACACGGCUTT against BC011210 | inactive: -0.291
16 | CGAAGCACAUAAACUAAAGTT against Ero1l | inactive: 0.0986
17 | CCUGACUAUCUGAAAGCUATT against Sod2 | inactive: 0.00276
18 | GCAGGACAGCAGGAAAAGUTT against 2610028H24Rik | inactive: -1.4
19 | GGAGACAGUGAGACAGAUATT against Ncoa3 | inactive: 2.27
20 | CCUCAAGCCUCACAAUUCATT against 6720480D16Rik | inactive: 0.389
21 | GGAGAAACAGCAGUACUUGTT against Hmg20b | inactive: 0.942
22 | GGUCAUCAACAGCAAAAACTT against 1810054G18Rik | inactive: 0.286
23 | GGAAAGCAGACUCAAUGAGTT against 1110018M03Rik | inactive: 1.28
24 | GCUCGCUCUCAAAUUUUCGTT against Catsper1 | inactive: 1.08
25 | GGUACAGAACUCAUUUUUGTT against Grm6 | inactive: 1.46
26 | CCAUUUGUGUAACACCAAUTT against Wbscr1 | inactive: -0.277

Row | Sequence | z-score
27 | GGUGAAAAUCAAGCUUGCUTT against Htr1d | inactive: 0.216
28 | GGUGCAUUCCUUGUGAAUGTT against Ctbp2 | inactive: -0.428
29 | GGAGGAACCUCAGAAACAGTT against D2Ertd750e | inactive: -2.79
30 | CGACUGGGUCUUAUGUUUATT against Tas2r121 | inactive: -0.307
31 | GCCAUGGUAAACAUCUUAUTT against Olfr827 | inactive: 0.289
32 | CCAGAUAAACCAUAUCCCATT against Flrt2 | inactive: 0.0114
33 | GGCUCAGAAUUAUCUUAGATT against Mmp7 | inactive: -0.996
34 | GGCAUCACACAGGAGAAAATT against Ppp1r16b | inactive: 0.269
35 | GGUCGCUACGUUUCUACAATT against Loxl1 | inactive: -1.05
36 | GCUAAGAACUUGAUCAACCTT against Camk2g | inactive: -1.16
37 | GGGUUUAGAGACCCUGAGATT against Klc2 | inactive: -1.81
38 | GGAACAAUUGUUUGAACCCTT against Fem1a | inactive: 0.44
39 | GGAAGACUCUGAAUUAGGGTT against Dusp13 | inactive: 0.537
40 | GCCCAAAAUGUAAUCAACUTT against 1810007M14Rik | inactive: -1.24
41 | GGCUCCAAGCACUAAAUAATT against LOC434198 | inactive: -1.7
42 | CCACUGAUGACAUGACUCUTT against V1rd13 | inactive: 1.86
43 | GGUUAAAGGUCAGAUUUAGTT against Dapk2 | inactive: 0.839
44 | CCAAGUUCACAAUUGUUCUTT against Gm457 | inactive: -0.19
45 | GGAUGACCAUGAUCACAAATT against C130038G02Rik | inactive: -1.88
46 | GGUAUUGCUGUGCUGAGGATT against Olfr675 | inactive: 0.749
47 | CGAAGUUCCUGGAAAAUAUTT against Tbc1d7 | inactive: -1.98
48 | CGAGAACCGACCAUGCAGUTT against Np15 | inactive: 1.26
49 | GGUUGAAAUAAGAACCAUATT against 1700073K01Rik | inactive: -0.171
50 | GGCUGUGCAACAGAAAAUGTT against 2210407C18Rik | inactive: -1.07
51 | GGCUCUGCUAUUCACCAGUTT against Olfr1008 | inactive: -0.687
52 | GGUACACAUUCACCAUAGCTT against D930031B21Rik | inactive: -0.816

Row | Sequence | z-score
53 | GGAAUAUAGAAGACUAAGUTT against 4921507A12 | inactive: -0.202
54 | ACUGUCAUGCACCCUAAAGTT against Olfr132 | inactive: -1.18
55 | CCAUGAAGACUCAUCUCUGTT against Igsf4b | inactive: -1.18
56 | GGAGGACUAAUGGUGUUCATT against 1810048J11Rik | inactive: -0.937
57 | CCCAGGCUAUGACGAUUAUTT against Ssrp1 | inactive: -0.078
58 | GGCUUUUGGAAAGUGGCUUTT against 1110054N06Rik | inactive: -0.648
59 | CGCCAAAAGACAUUGCUCATT against 4933404O11Rik | inactive: 1.25
60 | CCUUUCUCAUGCUAUGGAGTT against 4933430F16Rik | inactive: 1.47
61 | GGAUGUAUGUGCCAAGAUCTT against 3322402L07Rik | inactive: 1.44
62 | GGAUAUAAAGUGGCUCUGGTT against 1700030B17Rik | inactive: -0.524
63 | ACAUACCCGUGAAUGGCUCTT against Gpr40 | inactive: -1.05
64 | GCUGUCCUGCCGUAAUAGATT against 2010001O09Rik | inactive: 0.271
65 | AAGGGAGUCCAGCAUUUCATT against A330068P14Rik | inactive: -1.16
66 | CGCGGUUGGUUUAUACAUATT against 4833416I09Rik | inactive: -0.427
67 | GGCUGUCUUGAUUUUGAUUTT against C3ar1 | inactive: -0.0188
68 | GGCUUCUGAUCUUACCUGGTT against BC003266 | inactive: 0.595
69 | GGGACUUUUAAACUUGAACTT against Ube2n | inactive: 0.116
70 | GGAAAAGGCCAUGAAUAUATT against Mell1 | inactive: -0.455
71 | GCAAGAAUCCUGGCUAUAUTT against Bcap37 | inactive: -2.52
72 | GGUGUUCGUCAUAUGGAAUTT against 4930549C01Rik | inactive: 2.24
73 | GCGGAAGUCGAAUCUGUCUTT against Aga | inactive: 0.488
74 | GGAGUCAUCGAGUUUCGAGTT against Trem2 | inactive: 0.272
75 | GGAAGAAAACAGCGAUUUGTT against Myd116 | inactive: 0.546
76 | GGGAAAGGACAAAAAAAAATT against Rnf41 | inactive: 0.582
77 | GGCUUUGACAAUCUUUAAGTT against 1200007D18Rik | inactive: 0.464
78 | GGACCAUAGAUAUUCUAGATT against BC021921 | inactive: -0.601

Row | Sequence | z-score
79 | GGUAUCUACCAGUACGAGATT against 9030607L17Rik | inactive: 0.127
80 | GCUUAGACGACUAGACCUGTT against Slit2 | inactive: -0.359
81 | GGGUUUCAAAAACAAACCATT against Phtf1 | inactive: -0.93
82 | GGAACCUCAUGUCUCACCUTT against Vegfb | inactive: -1.38
83 | AUCAGUUUCCCUGAAAAGGTT against Pnma1 | inactive: 0.0542
84 | GGACACAACAAGUCUUAUGTT against Prg2 | inactive: -0.34
85 | GGAAUGAAGCCUGAACAGATT against Strc | inactive: 0.985
86 | GGUACAUGGCCAUUGUCCATT against Tacr2 | inactive: -0.154
87 | GGAUUUGAAACAGAAAGAATT against Pde7a | inactive: 0.886
88 | GGCCCAUUCAGAUCAUCCATT against V1rd6 | inactive: -0.621
89 | GCAGGUACUAAGGUUCCUGTT against Apobec3 | inactive: 0.364
90 | CCGACAGACUCACAUACUGTT against Trex1 | inactive: -2.94
91 | GGUUUUUAACUCAAUGUAGTT against Midn | inactive: -0.372
92 | GGGAAGAGUGAGGAUACGGTT against Mrps34 | inactive: 0.427
93 | GGCACUGAAUUCAGUGGCUTT against Slc22a19 | inactive: -0.439
94 | GGAUCAAGGCUGCUGUUCCTT against Pgk1 | inactive: 1.85
95 | GGGAAGAGUUGGAUCGAUCTT against Shkbp1 | inactive: 0.0688
96 | GGCAAAGCUGCUCUUUUCUTT against Dnttip1 | inactive: -0.362
97 | GUACUGAGCAAGAUGCUGGTT against Sox18 | inactive: -1.34
98 | GGGACAUGAGGAUUUGUCUTT against Six4 | inactive: 0.534
99 | GGCUAAAAUAAGCAAUCUGTT against Optc | inactive: 0.143
100 | GGGCAGUAAAGCUUUCUUGTT against 1700029I08Rik | inactive: 0.116
101 | GGAUGUGUGUGUCUCCUCATT against A030004J04Rik | inactive: -0.452
102 | GGACUCAACUUGAAGAAAATT against 0610008C08Rik | inactive: -1.03
103 | CGGUACAAGCUAGACCUCATT against 0610011F06Rik | inactive: -0.562
